Data reported in PubChem BioAssay AID2685 (National Center for Advancing Translational Sciences (NCATS), 2010).
The list shows a part of the results. The main result of the screen is listed elsewhere. These columns were measured beside it and carry no call. Compounds called inactive in the main read-out are mostly missing here. Words in brackets tell the shape of the fitted curve; partial curves, single points and poor fits give uncertain potencies.

Test: qHTS Assay for Lipid Storage Modulators in Drosophila S3 Cells;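 as to cell number change: cells counted by Cell Tracker Red CMTPX staining in the red channel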
Conditions: BODIPY lipid droplet fluorescence, 18-24 h; for cell number change: measured here: cell count max response, cells fed with added oleic acid
How it was run: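 Laser-scanning cytometry quantifies lipid droplet accumulation (500–530 nm total intensity; droplet/cell object ratio) in oleic acid-fed (400 uM added) Drosophila S3 cells treated with a concentration series. 20 uM Triacsin C defined 100% inhibition.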

[1] = measured here: cell number channel AC50, cells fed with added oleic acid
[2] = measured here: lipid fluorescence (Fed channel) AC50, cells fed with added oleic acid

| Structure (SMILES) | cell number change | AC50 [1] | AC50 [2] |
| --- | --- | --- | --- |
| COc1ccc(-n2ncc3c(NCc4ccccn4)ncnc32)cc1 | 3.49% | 1.16 µM [rising, partial curve] | 18.4 µM [rising, partial curve] |
| O=C1C(Cl)=C(Nc2ccc(O)cc2)C(=O)c2ccccc21 | -20.8% |  | 0.651 µM [falling, single point] |
| COc1cc(C#Cc2c(C=O)n(C)c3ccccc23)cc(OC)c1 | 14.6% |  | 1.16 µM [rising, partial curve, poor fit] |
| COc1ccc(C(CNC(=O)c2cccc3cccnc23)N(C)C)cc1 (configuration not stated) | 27% |  | 18.4 µM [rising, partial curve] |
| COc1ccc(C(C)=O)cc1CSc1nc2ccccc2c(=O)n1-c1ccccc1C | -3.7% | 4.61 µM [rising, single point] | 29.1 µM [falling, partial curve] |
| CCN(CC(=O)Nc1ccc(NC(C)=O)cc1)C(=O)c1ccc2c(c1)OCO2 | -0.648% |  |  |
| Cc1nn(-c2ccccc2)c(C)c1P(=O)(c1ccccc1)N(C)C (configuration not stated) | -27.2% |  |  |
| CC(=O)N1N=C(c2ccco2)CC1c1cccs1 (configuration not stated) |  | 5.8 µM [falling, single point] | 1.64 µM [falling, partial curve] |
| Nn1c(SCC(=O)NC(=O)NCc2ccccc2)nnc1C1CC1 | -19.7% |  | 2.59 µM [rising, single point] |
| COC(=O)/C(=C/c1ccc(F)cc1)NC(C)=O | 21% |  | 0.366 µM [rising, full curve, poor fit] |
| CC(C)(C)c1ccc(C(=O)OCCN2CCCCC2)cc1 | -14.8% | 0.13 µM [falling, full curve, poor fit] |  |
| COc1ccc(-c2cc(C(=O)Nc3ccccc3SC)no2)cc1OC | -16.5% | 6.51 µM [falling, partial curve, poor fit] | 7.31 µM [falling, single point] |
| Nc1ccc(C(=O)N/N=C\c2cc(N=Nc3cccc4ccccc34)ccc2O)cc1 | -67.8% | 18.4 µM [falling, partial curve] | 25.9 µM [falling, single point] |
| CCOC(=O)C1=CC[C@@H](c2ccccc2Cl)N(S(=O)(=O)c2ccc(C)cc2)[C@H]1C(=O)OCC | -21.4% |  | 8.2 µM [falling, single point] |
| CCOC(=O)c1ccc(CNC(=O)CSc2nc(NC(=O)c3ccccc3)c3c(C)c(C)oc3n2)cc1 |  | 2.91 µM [rising, single point] | 2.91 µM [rising, partial curve] |
| Cc1cc(C(=O)COc2ccc(C#N)cc2)c(C)n1-c1ccc2c(c1)OCO2 | -36.1% | 32.6 µM [falling, single point] | 1.46 µM [rising, partial curve] |
| COc1cc(CCCN2C(=O)C(=O)NC[C@@H]2CC2CCCCC2)cc(OC)c1OC | 22.4% |  | 5.8 µM [rising, full curve, poor fit] |
| CCCN1C(=O)S/C(=C\c2ccc(N3CCOCC3)o2)C1=O | -83.7% | 18.4 µM [falling, single point] | 23.1 µM [falling, single point] |
| CN(C)/C=C(\C=O)c1cccc(Cl)c1 | -45.8% | 29.1 µM [falling, single point] | 1.46 µM [rising, single point] |

5 of these compounds in another layout.
Structure (SMILES),cell number change,AC50 [1],AC50 [2]
CCOC(=O)c1ccc(CNC(=O)CSc2nc(NC(=O)c3ccccc3)c3c(C)c(C)oc3n2)cc1,,"2.91 µM [rising, single point]","2.91 µM [rising, partial curve]"
Cc1cc(C(=O)COc2ccc(C#N)cc2)c(C)n1-c1ccc2c(c1)OCO2,-36.1%,"32.6 µM [falling, single point]","1.46 µM [rising, partial curve]"
COc1cc(CCCN2C(=O)C(=O)NC[C@@H]2CC2CCCCC2)cc(OC)c1OC,22.4%,,"5.8 µM [rising, full curve, poor fit]"
CCCN1C(=O)S/C(=C\c2ccc(N3CCOCC3)o2)C1=O,-83.7%,"18.4 µM [falling, single point]","23.1 µM [falling, single point]"
CN(C)/C=C(\C=O)c1cccc(Cl)c1,-45.8%,"29.1 µM [falling, single point]","1.46 µM [rising, single point]"

Continued:

| Structure (SMILES) | cell number change | AC50 [1] | AC50 [2] |
| --- | --- | --- | --- |
| O=C(Nc1ccc(N2CCCC2)cc1)c1ccc([N+](=O)[O-])cc1Cl | 18.5% |  | 0.164 µM [rising, full curve, poor fit] |
| CN(C)CCOC(=O)c1sc2ccccc2c1Cl | -13.7% | 0.326 µM [falling, partial curve] |  |
| Cc1cc(NC(=O)CCN2C(=O)C3C4CCC(C4)C3C2=O)cc(C)c1Br (configuration not stated) | -17.6% |  | 29.1 µM [falling, single point] |
| Cc1cc(F)ccc1S(=O)(=O)Nc1ccc(C(=O)N(C)Cc2ccco2)cc1 | -7.24% |  | 0.259 µM [rising, partial curve, poor fit] |
| CCN1CCCc2cc(CN(CCN3CCOCC3)C(=O)Nc3ccc(C)c(C)c3)ccc21 |  | 0.259 µM [rising, full curve, poor fit] | 0.00411 µM [rising, full curve, poor fit] |
| Cc1ccccc1-c1nnc(SCCOc2ccc3c(C)cc(=O)oc3c2)o1 | 54.2% | 3.26 µM [rising, single point] | 1.84 µM [rising, partial curve] |
| CC1(N2CCOCC2)CC2(O)C(=[N+]1[O-])CCc1nonc12 (configuration not stated) | -8.5% |  | 0.13 µM [rising, full curve, poor fit] |
| Cc1cc(-c2nn(-c3ccccc3F)cc2CN2CCCC(CO)C2)c(C)s1 (configuration not stated) | -13.1% |  | 32.6 µM [falling, partial curve] |
| CC(OC(=O)CCc1nc2ccccc2c(=O)[nH]1)C(=O)NCc1ccc2c(c1)OCO2 (configuration not stated) | 13.8% |  | 5.17 µM [rising, partial curve] |
| CCOC(=O)C1=C(C)OC(N)=C(C(=O)OCC)C1c1cccnc1 (configuration not stated) | -1.21% |  | 0.00517 µM [rising, full curve, poor fit] |
| CC(=O)N(C)c1ccc(OCC(O)CN(Cc2ccco2)S(=O)(=O)c2ccc(C)cc2)cc1 (configuration not stated) | 107% | 25.9 µM [rising, partial curve] |  |
| COC(=O)c1ccc(NC(=O)CN2C(=O)CC(C)S(=O)(=O)c3ccccc32)cc1 (configuration not stated) | -6.87% |  |  |
| O=C(NCCc1ccc(Cl)cc1)C(=O)c1c[nH]c2ccccc12 | 91% | 29.1 µM [rising, single point] |  |
| CC(C)Cc1ccc(S(=O)(=O)Nc2cccnc2)cc1 | 17.8% |  |  |
| COc1ccc(Cl)cc1NCC(=O)Nc1ccc(OC)c(S(=O)(=O)N2CCCCC2)c1 | -19.6% |  |  |
| CCc1ccc2c(c1)C(c1ccc(N3CCOCC3)cc1)=NNC(c1ccncc1)=N2 | -31% | 29.1 µM [falling, single point] | 32.6 µM [falling, single point] |
| Cc1ccc(NC(=O)CNC(c2ccccc2)c2ccccc2)c(F)c1 | 52.2% | 10.3 µM [rising, partial curve] |  |
| COC(=O)Nc1ccc(N2CCOCC2)c(S(=O)(=O)N2CCOCC2)c1 | 10.7% |  | 0.13 µM [falling, full curve, poor fit] |
| COCCNC(=S)NC(=O)CC12CC3CC(CC(C3)C1)C2 | 1.44% |  | 0.103 µM [falling, full curve, poor fit] |

| Structure (SMILES) | cell number change | AC50 [1] | AC50 [2] |
| --- | --- | --- | --- |
| COc1ccc2nc(NC(=O)c3cccc(S(=O)(=O)N4CCOCC4)c3)sc2c1 | 52.4% | 11.6 µM [rising, partial curve] |  |
| CCOc1ccccc1CNC(=O)C1Cc2cc(S(=O)(=O)N3CCCCC3)ccc2N1C(C)=O (configuration not stated) | -3.4% | 0.00517 µM [falling, full curve, poor fit] |  |
| Cc1ccc(S(=O)(=O)CCC(=O)OCC(=O)N2CCN(c3ccccc3)CC2)cc1 | -24.1% |  | 0.013 µM [falling, full curve, poor fit] |
| COc1cccc(C(=O)Nc2nnc(SCC(=O)NC3CCCC3)s2)c1 | 11.3% |  | 6.51 µM [falling, single point] |
| Cn1c(=O)[nH]c(=O)c2c1nc(NCc1ccco1)n2Cc1ccccc1Cl | 34.4% | 0.231 µM [rising, full curve, poor fit] | 0.82 µM [rising, partial curve] |
| CCOCCCNC(=O)Cc1ccc(Br)cc1 | -46.8% | 32.6 µM [falling, single point] |  |
| COc1ccc(NC(=O)Cn2c3ccc(OC)cc3c3nc4n(c(=O)c32)CCS4)cc1 |  |  | 5.17 µM [falling, single point] |
| Cn1c(O)c(N=Nc2nc(-c3ccccc3)cs2)c2ccccc21 | -12.2% |  | 16.4 µM [rising, single point] |
| CN1CCN(C(=O)CN(C)S(=O)(=O)c2ccc(F)cc2)CC1 |  |  | 6.31 µM [falling, single point] |
| Cn1c(=O)c(/C(N)=N/OC(=O)c2ccccc2)cn(-c2ccccc2)c1=O | -56.1% | 2.31 µM [falling, full curve] | 4.11 µM [falling, full curve] |
| CC(Sc1nc(N)cc(=O)[nH]1)C(=O)NC1CCCCC1 (configuration not stated) | -8.99% | 0.00517 µM [falling, full curve, poor fit] |  |
| CCC(C)(C)c1nnc(NC(=O)c2cccc([N+](=O)[O-])c2)s1 | -6.31% | 0.731 µM [falling, full curve, poor fit] |  |
| CSc1ccccc1NC(=O)NCCCl | -116% | 16.4 µM [falling, partial curve] | 16.4 µM [falling, partial curve] |
| CCOc1ccccc1C(=O)Nc1cccc(-c2ccc(N3CCOCC3)nn2)c1 | 12.3% |  | 6.51 µM [rising, single point] |
| FC(F)(F)c1ccccc1CNCc1ccc2c(c1)OCO2 | 13% |  |  |
| COc1ccc(OC)c(NC(=O)CCN2CCN(CCO)CC2)c1 | 10.8% |  | 29.1 µM [rising, single point] |
| CCn1c(-c2ccccc2Cl)nn(CC(=O)Nc2ccc(OC)cc2)c1=S | -13.1% | 1.64 µM [rising, partial curve, poor fit] |  |
| O=[N+]([O-])c1ccc(/C([O-])=C(/C(=S)Nc2ccccc2F)[n+]2ccccc2)cc1 | -37.6% | 2.31 µM [falling, full curve] | 0.116 µM [falling, full curve] |
